Test results: US20210130491A1
These are yes or no findings as the source states them, for the method shown. Some results given as binding are weak or reduced against the parent protein; the word gives no strength. Sequences can lack the tags named with a protein.

T1: His-MRS (human) (UniProt P56192)
T1 sequence: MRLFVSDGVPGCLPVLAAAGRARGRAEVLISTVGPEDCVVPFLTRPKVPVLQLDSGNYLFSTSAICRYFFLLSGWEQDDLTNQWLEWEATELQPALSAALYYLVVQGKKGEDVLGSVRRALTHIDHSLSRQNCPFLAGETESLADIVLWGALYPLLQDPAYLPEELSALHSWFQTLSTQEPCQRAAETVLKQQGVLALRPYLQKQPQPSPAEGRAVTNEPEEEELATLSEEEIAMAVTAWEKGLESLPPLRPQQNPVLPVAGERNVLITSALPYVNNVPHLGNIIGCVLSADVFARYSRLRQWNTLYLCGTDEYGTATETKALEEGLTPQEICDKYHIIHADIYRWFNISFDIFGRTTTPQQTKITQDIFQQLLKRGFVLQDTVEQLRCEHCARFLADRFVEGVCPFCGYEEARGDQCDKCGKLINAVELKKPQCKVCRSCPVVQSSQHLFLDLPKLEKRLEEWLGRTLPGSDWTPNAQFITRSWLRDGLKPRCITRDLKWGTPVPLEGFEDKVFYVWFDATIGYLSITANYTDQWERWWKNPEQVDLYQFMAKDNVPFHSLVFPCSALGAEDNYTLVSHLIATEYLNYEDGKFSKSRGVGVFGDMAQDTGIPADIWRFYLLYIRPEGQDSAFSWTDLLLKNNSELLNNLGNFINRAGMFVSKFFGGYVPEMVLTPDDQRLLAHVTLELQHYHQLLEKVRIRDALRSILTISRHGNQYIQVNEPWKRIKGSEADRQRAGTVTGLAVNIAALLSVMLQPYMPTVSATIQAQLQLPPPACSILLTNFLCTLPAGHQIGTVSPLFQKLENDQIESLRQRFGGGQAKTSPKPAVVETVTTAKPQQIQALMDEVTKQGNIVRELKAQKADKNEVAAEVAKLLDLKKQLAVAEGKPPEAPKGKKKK

B1: 1E8 antibody (1E8 IgG) (antibody, V domains shown)
VH: DVKLQESGPGLVNPSQSLSLTCTVTGYSITSDYAWNWIRQFPGNKLEWMGYISYSGRTSYKSSLKSRISITRDTSKNQFFLELNSVTTEDTATYYCARDYGNFVGYFDVWGAGTTVTVSS
VL: DIVMTQSPSSLAVSVGEKVTMSCKSSQSLLYSSNQKNYLAWYQQKPGQSPKLLIYWASTRESGVPDRFTGSGSGTEFTLTISSVKAEDLAVYYCQQYYSYPTFGGGTKLEIKA
B2: 8A12 antibody (8A12 IgG) (antibody, V domains shown)
VH: DVKLQESGPGLVKPSQSLSLTCTVTGYSITSEYAWTWIRQFPGNKLEWMGYINYNGNTNLNPSLKSRISIIRDTSKNQFFLQLNSVTTEDTATYYCARSLWPRGWFAYWGQGTLVTVSA
VL: DIQMTQSPSSMYASLGERVTITCKASQDINSYLSWFQQKPGKSPKTLMYRANRLVDGVPSRFSGSGSGQDYSLTISSLEYEDMGIYYCLQYDEFPRTFGGGTKLEIKA

Biological target: T1, His-MRS (human)
Test: ELISA, His-MRS coated at 1 ug/ml, antibody 500 ng/ml

Row | Binder | binding
1 | B1 | binds
2 | B2 | binds
